Results deposited as PubChem BioAssay AID652272 (Drosophila RNAi Screening Center, 2013)
Purpose: 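Genome-wide knock-down search for components of Hedgehog signalling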 (primary screen). Cells: Drosophila clone 8 (Cl8) cells. Reagents: long dsRNA against Drosophila genes. Detection: 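Firefly light from a Hedgehog-responsive ptc promoter reporter and Renilla reference light, both read on a plate reader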. Reading the numbers: firefly Hh reporter signal: higher = more ptc reporter light; Renilla reference signal: higher = more Renilla control light. Rule for the call: 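Hit when the z-score averaged over two replicates is under -2 or over +3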. Meaning of the calls: active = hit: reporter lowered or raised; inactive = not a hit.
The screen tested about 21,000 reagents; this is a random part of those that have a named target and a result. Of all reagents, 503 (2.4%) were called active. 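Raw plate light values, not normalised; calls rest on replicate z-scores that were not deposited; hits include reporter decreases as well as increases.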 Unmarked entries are inactive. A plus sign joins genes that one reagent is predicted to hit. Not stated in the record: the amount of reagent, the time to read-out.

Gene | dsRNA | firefly Hh reporter signal, replicate 1 | firefly Hh reporter signal, replicate 2 | firefly Hh reporter signal, replicate 3 | Renilla reference signal, replicate 1 | Renilla reference signal, replicate 2
Taf9 | DRSC20326 | 90201 | 78813 | – | 2096 | 1986
Cen | DRSC02704 | 1.24e5 | 64256 | – | 4521 | 2209
Rexo5 | DRSC10981 | 49200 | 56540 | – | 5284 | 4066
Hex-A | DRSC18259 | 48833 | 95152 | – | 1862 | 4854
Had2 | DRSC05971 | 1.26e5 | 75852 | – | 5552 | 3093
CG11211 | DRSC04851 | 99440 | 90675 | – | 1881 | 7625
Mer | DRSC20259 | 79573 | 77725 | – | 1972 | 2035
fd3F | DRSC17843 | 31988 | 26877 | – | 2121 | 1104
CG4631 | DRSC02766 | 2.16e5 | 4.49e5 | 67202 | 5081 | 23992
CG10910 | DRSC06007 | 1.26e5 | 6.61e5 | 65906 | 3521 | 36077
Mur11Da | DRSC18960 | 7.67e5 | 3.01e5 | – | 33789 | 4679
EndoA | DRSC14775 | 62422 | 79562 | – | 2339 | 2711
CG5180 | DRSC15731 | 6.72e5 | 1.01e5 | – | 31424 | 2515
bc10 | DRSC11326 | 54093 | 59386 | – | 5568 | 3949
CG6675 | DRSC03735 | 81976 | 1.04e5 | – | 2224 | 7200
U2A | DRSC06445 | 76259 | 47642 | – | 1803 | 3820
Etfb | DRSC16324 | 1.12e5 | 1.00e5 | – | 2480 | 2939
CG9630 | DRSC16527 | 81528 | 80973 | – | 3660 | 3238
Nfs1 | DRSC02154 | 55488 | 51868 | – | 2688 | 2663
CG15330 | DRSC18014 | 64448 | 2.22e5 | – | 2322 | 8279
Karl | DRSC19883 | 1.08e5 | 73312 | – | 2919 | 1890
CAH14 | DRSC04234 | 1.46e5 | 87675 | – | 3968 | 7393
Mzt1 | DRSC07979 | 85671 | 1.53e5 | – | 2704 | 6005
chm | DRSC03341 | 97376 | 87927 | – | 4199 | 3878
CG10051 | DRSC05959 | 80637 | 73001 | – | 2474 | 6040
CG13297 | DRSC09971 | 62449 | 60272 | – | 7692 | 4507
Yp3 | DRSC20302 | 99539 | 2.54e5 | – | 3229 | 10221
CG4213 | DRSC00641 | 1.57e5 | 1.00e5 | – | 4048 | 2173
Smox | DRSC18716 | 88552 | 2.25e5 | – | 2836 | 7153
Dtwd2 + Obp84a | DRSC12603 | 95769 | 1.38e5 | – | 4251 | 3860
CG1513 | DRSC05194 | 95708 | 2.10e5 | – | 2316 | 8187
CG1513 | DRSC06553 | 4.32e5 | 75649 | – | 3780 | 3780
CG1513 | DRSC06554 | 1.41e5 | 83289 | – | 3464 | 6084
RnpS1 | DRSC15154 | 81712 | 52370 | – | 4454 | 2868
CG6443 | DRSC02958 | 49169 | 32809 | – | 2061 | 1456
crp | DRSC03515 | 53987 (active) | 29616 | – | 2149 | 3571
CG5003 | DRSC15694 | 72992 | 89760 | – | 1500 | 2707
CG7300 | DRSC03044 | 55876 | 1.11e5 | – | 2828 | 4045
Kots | DRSC16581 | 1.31e5 | 95833 | – | 5040 | 4146
Sin1 | DRSC05965 | 1.04e5 | 66809 | – | 4928 | 2928
Hydr2 | DRSC00607 | 99229 | 79800 | – | 4603 | 3603
EMC7 | DRSC07162 | 63571 | 67833 | – | 780 | 4866
CG42869 + Sfp93F | DRSC13505 | 6.79e5 | 1.23e5 | – | 4315 | 4315
CG9547 | DRSC03260 | 93385 | 1.18e5 | – | 4117 | 3105
CG10916 | DRSC06012 | 72144 | 70352 | – | 3904 | 2891
Elba1 | DRSC00276 | 89264 | 44835 | – | 2475 | 4304
Grip84 | DRSC20248 | 81352 | 60615 | – | 1573 | 1683
Nuf2 | DRSC03123 | 35360 | 47041 | – | 1461 | 2162
CG32436 | DRSC11683 | 82663 | 1.02e5 | – | 2377 | 2501
CG32436 | DRSC11796 | 70516 | 78838 | – | 2026 | 2048
CheB38a | DRSC03205 | 80278 | 5.71e5 | 32391 | 2736 | 33139
CG32669 | DRSC18864 | 4.58e5 | 2.09e5 | – | 24970 | 4776
CG9330 | DRSC11066 | 94729 | 1.11e5 | – | 3127 | 3107
miple1 | DRSC08722 | 1.17e5 | 56965 | – | 4464 | 4153
CG8839 | DRSC07285 | 89802 | 45383 | – | 4296 | 2178
Coa7 | DRSC20967 | 1.37e5 | 2.07e5 | – | 5333 | 9484
Act79B | DRSC11604 | 62928 | 56577 | – | 2614 | 1514
Irk3 | DRSC02047 | 81159 | 60967 | – | 1848 | 5401
CG7148 | DRSC11802 | 89984 | 59145 | – | 3952 | 2690
CG33333 | DRSC13233 | 57971 | 1.72e5 | – | 12133 | 3756
Pyroxd1 | DRSC02098 | 60077 | 32749 | – | 1542 | 3317
CycB | DRSC04605 | 31632 | 24000 | – | 1574 | 1216
Tengl4 | DRSC15620 | 88237 | 92743 | – | 2408 | 2453
ng4 | DRSC18805 | 1.19e5 | 3.22e5 | – | 4230 | 10968
disp | DRSC12376 | 92980 | 93723 | – | 3945 | 3178
CG17475 | DRSC15238 | 51707 | 81009 | – | 1450 | 1752
CG12825 | DRSC06174 | 1.43e5 | 71251 | – | 3956 | 5926
CG17199 | DRSC15192 | 4.65e5 | 95696 | – | 23669 | 2773
CG31419 | DRSC15771 | 66390 | 92220 | – | 1705 | 2241
CG2444 | DRSC19846 | 64618 | 2.44e5 | – | 1670 | 9372
CG7376 | DRSC10829 | 73876 | 1.04e5 | – | 3702 | 4288
CG6937 | DRSC16140 | 3.47e5 (active) | 70403 | – | 25169 | 2778
GstE9 | DRSC06679 | 1.14e5 | 50212 | – | 3189 | 4160

Reformatted: entries from further up
CycB [DRSC04605]: firefly Hh reporter signal, replicate 1 = 31632; firefly Hh reporter signal, replicate 2 = 24000; Renilla reference signal, replicate 1 = 1574; Renilla reference signal, replicate 2 = 1216
Tengl4 [DRSC15620]: firefly Hh reporter signal, replicate 1 = 88237; firefly Hh reporter signal, replicate 2 = 92743; Renilla reference signal, replicate 1 = 2408; Renilla reference signal, replicate 2 = 2453
ng4 [DRSC18805]: firefly Hh reporter signal, replicate 1 = 1.19e5; firefly Hh reporter signal, replicate 2 = 3.22e5; Renilla reference signal, replicate 1 = 4230; Renilla reference signal, replicate 2 = 10968
disp [DRSC12376]: firefly Hh reporter signal, replicate 1 = 92980; firefly Hh reporter signal, replicate 2 = 93723; Renilla reference signal, replicate 1 = 3945; Renilla reference signal, replicate 2 = 3178
CG17475 [DRSC15238]: firefly Hh reporter signal, replicate 1 = 51707; firefly Hh reporter signal, replicate 2 = 81009; Renilla reference signal, replicate 1 = 1450; Renilla reference signal, replicate 2 = 1752
CG12825 [DRSC06174]: firefly Hh reporter signal, replicate 1 = 1.43e5; firefly Hh reporter signal, replicate 2 = 71251; Renilla reference signal, replicate 1 = 3956; Renilla reference signal, replicate 2 = 5926
CG17199 [DRSC15192]: firefly Hh reporter signal, replicate 1 = 4.65e5; firefly Hh reporter signal, replicate 2 = 95696; Renilla reference signal, replicate 1 = 23669; Renilla reference signal, replicate 2 = 2773
CG31419 [DRSC15771]: firefly Hh reporter signal, replicate 1 = 66390; firefly Hh reporter signal, replicate 2 = 92220; Renilla reference signal, replicate 1 = 1705; Renilla reference signal, replicate 2 = 2241
CG2444 [DRSC19846]: firefly Hh reporter signal, replicate 1 = 64618; firefly Hh reporter signal, replicate 2 = 2.44e5; Renilla reference signal, replicate 1 = 1670; Renilla reference signal, replicate 2 = 9372
